Reference: article doi:10.1101/2021.08.25.457671
Results are given in words; binding and its absence hold for the method and conditions named. In cells and extracts the contact can be indirect. Some binding calls cover weakened binding; strength is not graded here. For part of these data: Tags and fused reporters may be left off the sequences shown.

Sequences of proteins named here, by UniProt entry; tags and fusion partners are left off.
UniProt P47079: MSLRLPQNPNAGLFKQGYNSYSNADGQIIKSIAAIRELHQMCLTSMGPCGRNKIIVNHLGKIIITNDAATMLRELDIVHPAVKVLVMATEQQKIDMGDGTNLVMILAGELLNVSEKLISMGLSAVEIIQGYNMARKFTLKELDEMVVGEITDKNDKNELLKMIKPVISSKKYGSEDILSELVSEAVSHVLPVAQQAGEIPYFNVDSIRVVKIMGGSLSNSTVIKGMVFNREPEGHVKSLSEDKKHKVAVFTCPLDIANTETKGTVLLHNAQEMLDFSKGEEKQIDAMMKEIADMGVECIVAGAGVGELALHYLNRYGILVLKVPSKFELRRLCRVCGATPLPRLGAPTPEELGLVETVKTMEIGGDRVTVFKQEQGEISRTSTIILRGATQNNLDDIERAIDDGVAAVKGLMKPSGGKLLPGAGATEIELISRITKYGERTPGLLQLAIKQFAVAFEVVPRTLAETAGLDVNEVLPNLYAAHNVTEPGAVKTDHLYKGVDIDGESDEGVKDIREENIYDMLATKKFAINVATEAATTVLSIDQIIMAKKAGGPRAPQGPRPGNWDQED
UniProt P32480: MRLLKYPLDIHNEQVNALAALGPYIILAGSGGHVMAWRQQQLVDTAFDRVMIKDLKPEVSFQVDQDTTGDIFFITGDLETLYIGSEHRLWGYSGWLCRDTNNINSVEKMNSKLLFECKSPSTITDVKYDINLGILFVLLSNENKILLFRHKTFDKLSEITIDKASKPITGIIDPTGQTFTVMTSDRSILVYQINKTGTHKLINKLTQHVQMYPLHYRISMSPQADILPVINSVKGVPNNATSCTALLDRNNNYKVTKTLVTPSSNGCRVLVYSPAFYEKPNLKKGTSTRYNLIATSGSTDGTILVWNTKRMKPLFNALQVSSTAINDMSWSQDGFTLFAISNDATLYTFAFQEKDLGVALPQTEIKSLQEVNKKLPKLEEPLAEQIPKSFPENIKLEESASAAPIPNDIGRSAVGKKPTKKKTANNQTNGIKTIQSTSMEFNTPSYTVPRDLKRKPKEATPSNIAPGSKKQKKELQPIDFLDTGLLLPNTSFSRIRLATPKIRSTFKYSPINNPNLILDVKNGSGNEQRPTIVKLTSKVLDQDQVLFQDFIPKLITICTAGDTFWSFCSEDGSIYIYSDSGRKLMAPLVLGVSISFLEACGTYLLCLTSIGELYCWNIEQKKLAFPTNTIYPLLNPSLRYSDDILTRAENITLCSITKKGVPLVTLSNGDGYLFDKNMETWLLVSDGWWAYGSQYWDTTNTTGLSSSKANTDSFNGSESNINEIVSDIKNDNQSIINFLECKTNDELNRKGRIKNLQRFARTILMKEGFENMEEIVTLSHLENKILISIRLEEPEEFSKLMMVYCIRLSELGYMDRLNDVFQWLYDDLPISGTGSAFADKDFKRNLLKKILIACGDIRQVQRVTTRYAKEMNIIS
UniProt P10591: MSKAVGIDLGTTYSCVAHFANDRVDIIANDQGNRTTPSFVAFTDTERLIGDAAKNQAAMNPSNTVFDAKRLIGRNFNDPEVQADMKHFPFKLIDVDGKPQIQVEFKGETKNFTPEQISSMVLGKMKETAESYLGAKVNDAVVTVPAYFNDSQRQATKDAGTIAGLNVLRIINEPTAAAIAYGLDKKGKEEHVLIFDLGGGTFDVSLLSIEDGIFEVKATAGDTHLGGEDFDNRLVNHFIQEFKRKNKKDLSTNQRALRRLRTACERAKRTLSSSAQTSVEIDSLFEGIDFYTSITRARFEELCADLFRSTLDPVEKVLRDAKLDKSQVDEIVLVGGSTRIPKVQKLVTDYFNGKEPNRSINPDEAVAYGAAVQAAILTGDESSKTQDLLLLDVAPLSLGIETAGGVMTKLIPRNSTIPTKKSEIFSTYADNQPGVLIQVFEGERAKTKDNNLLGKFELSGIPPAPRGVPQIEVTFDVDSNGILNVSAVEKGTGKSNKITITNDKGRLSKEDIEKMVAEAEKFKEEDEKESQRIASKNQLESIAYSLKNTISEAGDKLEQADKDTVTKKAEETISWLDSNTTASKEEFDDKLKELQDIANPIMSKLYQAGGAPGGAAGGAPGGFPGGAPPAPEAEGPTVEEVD

Tests used:
Assay in all cases: co-IP
[1] = biological target: T1, Ste11 (immunoprecipitated from yeast) (budding yeast) (UniProt P23561)
T1 sequence: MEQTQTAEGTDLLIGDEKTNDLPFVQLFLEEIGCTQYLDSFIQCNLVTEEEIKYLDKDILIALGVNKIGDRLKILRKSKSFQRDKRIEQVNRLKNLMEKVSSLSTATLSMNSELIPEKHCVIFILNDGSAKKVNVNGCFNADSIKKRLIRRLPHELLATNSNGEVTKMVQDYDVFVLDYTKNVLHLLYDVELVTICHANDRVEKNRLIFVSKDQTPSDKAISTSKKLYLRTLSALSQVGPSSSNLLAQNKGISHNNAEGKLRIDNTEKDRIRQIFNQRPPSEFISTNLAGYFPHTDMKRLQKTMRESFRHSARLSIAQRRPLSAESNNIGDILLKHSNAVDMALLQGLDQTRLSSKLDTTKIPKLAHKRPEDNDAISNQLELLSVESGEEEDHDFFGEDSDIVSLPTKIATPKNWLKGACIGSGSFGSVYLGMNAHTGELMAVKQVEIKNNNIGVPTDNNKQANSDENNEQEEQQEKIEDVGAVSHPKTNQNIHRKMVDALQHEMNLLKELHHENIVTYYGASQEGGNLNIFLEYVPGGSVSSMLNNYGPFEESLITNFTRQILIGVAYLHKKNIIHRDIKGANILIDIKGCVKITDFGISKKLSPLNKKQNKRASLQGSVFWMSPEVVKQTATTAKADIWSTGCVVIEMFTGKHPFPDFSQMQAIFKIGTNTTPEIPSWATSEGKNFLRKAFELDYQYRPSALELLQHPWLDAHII

[2] = biological target: HA-tagged Cct8 (budding yeast) (UniProt P47079)
[3] = biological target: Hir2 (budding yeast) (UniProt P32480)
[4] = biological target: T2, Pim1 wildtype (bait of the co-IP in yeast) (budding yeast) (UniProt P36775)
T2 sequence: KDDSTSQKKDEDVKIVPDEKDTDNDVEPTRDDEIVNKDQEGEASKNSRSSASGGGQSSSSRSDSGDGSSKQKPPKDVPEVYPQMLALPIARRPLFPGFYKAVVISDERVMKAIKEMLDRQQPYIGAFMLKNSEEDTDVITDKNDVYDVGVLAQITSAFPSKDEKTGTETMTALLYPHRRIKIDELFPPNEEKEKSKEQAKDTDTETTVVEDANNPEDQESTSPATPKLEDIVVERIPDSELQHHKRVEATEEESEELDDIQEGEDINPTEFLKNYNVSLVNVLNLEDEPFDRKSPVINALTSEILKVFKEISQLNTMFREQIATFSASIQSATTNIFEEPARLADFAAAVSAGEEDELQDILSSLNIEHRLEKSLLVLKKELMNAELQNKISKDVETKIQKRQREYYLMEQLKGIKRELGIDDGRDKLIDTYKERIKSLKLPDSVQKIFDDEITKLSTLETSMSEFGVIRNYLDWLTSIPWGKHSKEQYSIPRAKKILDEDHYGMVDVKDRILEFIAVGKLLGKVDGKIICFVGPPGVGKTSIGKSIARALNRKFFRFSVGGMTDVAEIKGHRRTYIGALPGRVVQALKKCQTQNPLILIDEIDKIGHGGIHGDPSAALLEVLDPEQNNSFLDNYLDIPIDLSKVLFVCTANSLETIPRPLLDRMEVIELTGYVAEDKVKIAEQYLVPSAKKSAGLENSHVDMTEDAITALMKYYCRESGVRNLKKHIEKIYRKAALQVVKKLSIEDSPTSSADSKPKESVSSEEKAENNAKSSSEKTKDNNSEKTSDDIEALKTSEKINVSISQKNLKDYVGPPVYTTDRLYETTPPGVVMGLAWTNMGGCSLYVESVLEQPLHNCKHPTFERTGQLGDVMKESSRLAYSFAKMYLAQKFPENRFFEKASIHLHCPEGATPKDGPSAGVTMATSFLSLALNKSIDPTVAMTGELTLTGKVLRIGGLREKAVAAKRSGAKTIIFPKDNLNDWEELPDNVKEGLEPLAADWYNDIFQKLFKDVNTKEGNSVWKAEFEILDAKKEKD

[5] = biological target: T3, HA-tagged Sse1 (budding yeast) (UniProt P32589)
T3 sequence: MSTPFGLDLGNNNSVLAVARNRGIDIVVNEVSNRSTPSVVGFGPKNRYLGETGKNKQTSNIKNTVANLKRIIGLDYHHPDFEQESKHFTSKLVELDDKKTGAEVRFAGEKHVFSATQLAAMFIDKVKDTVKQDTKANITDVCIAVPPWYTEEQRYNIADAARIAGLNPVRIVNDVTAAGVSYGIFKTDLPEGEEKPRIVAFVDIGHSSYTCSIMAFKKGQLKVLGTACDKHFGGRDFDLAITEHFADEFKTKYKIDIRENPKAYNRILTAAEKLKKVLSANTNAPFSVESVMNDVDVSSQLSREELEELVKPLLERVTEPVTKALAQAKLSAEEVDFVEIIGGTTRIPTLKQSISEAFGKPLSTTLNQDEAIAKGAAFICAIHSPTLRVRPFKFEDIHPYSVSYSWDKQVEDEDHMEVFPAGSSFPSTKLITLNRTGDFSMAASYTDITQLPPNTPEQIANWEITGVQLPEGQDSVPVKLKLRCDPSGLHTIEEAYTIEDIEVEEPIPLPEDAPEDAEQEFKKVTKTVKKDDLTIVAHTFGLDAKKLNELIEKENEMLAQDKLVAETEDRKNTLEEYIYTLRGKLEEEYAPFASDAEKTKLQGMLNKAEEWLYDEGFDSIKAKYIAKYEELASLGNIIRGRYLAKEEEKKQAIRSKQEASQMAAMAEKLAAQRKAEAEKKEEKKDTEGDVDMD

[6] = biological target: T4, Mtw1 (bait of the co-IP in yeast) (budding yeast) (UniProt P39731)
T4 sequence: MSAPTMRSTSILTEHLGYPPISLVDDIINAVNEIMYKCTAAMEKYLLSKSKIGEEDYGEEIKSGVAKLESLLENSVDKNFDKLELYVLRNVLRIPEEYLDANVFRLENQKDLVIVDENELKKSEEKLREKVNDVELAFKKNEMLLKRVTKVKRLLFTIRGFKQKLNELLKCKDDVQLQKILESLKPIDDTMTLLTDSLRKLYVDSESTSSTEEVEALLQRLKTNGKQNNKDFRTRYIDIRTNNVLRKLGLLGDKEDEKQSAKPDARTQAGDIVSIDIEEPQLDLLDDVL

Measured: binding

Ssa1 found by immunoblot in co-immunoprecipitates of client proteins from yeast (from UniProt P10591 1-642)
binds: all assays above
